# Reference: the supplement of paper PMC8728848
# The list shows a part of the results.
# Tests used:
# Test in all cases: glycan array binding signal (z-score within array); higher = stronger binding
# Settings in all cases: glycan notation: IUPAC condensed, linker removed
# Gal6S(b1-4)Glc6S = target: Gal6S(b1-4)Glc6S
# Method in brief: (§1)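 Glycan array data came from 3228 arrays in the Consortium for Functional Glycomics database, and only arrays with an available protein sequence were kept. Glycan names were put into IUPAC-condensed notation, and columns mapping to the same glycan were averaged. The binding signal is a within-array Z-score, averaged across arrays of one protein sequence run at different concentrations or buffers and across linkers. A negative Z-score can be read as non-binding.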
# Gal6S(b1-4)GlcNAc = target: Gal6S(b1-4)GlcNAc
# Method in brief: as §1
# Gal6S(b1-4)GlcNAc6S = target: Gal6S(b1-4)GlcNAc6S
# Method in brief: as §1
# GalNAc(a1-3)Gal = target: GalNAc(a1-3)Gal
# Method in brief: as §1
# GalNAc(a1-3)GalNAc = target: GalNAc(a1-3)GalNAc
# Method in brief: as §1
# [1] = target: GalNAc(a1-3)GalNAc(b1-3)Gal(a1-4)Gal(b1-4)Glc
# Method in brief: as §1
# [2] = target: GalNAc(a1-3)GalNAc(b1-3)Gal(a1-4)Gal(b1-4)GlcNAc
# Method in brief: as §1
# GalNAc(b1-3)Gal = target: GalNAc(b1-3)Gal
# Method in brief: as §1
# [3] = target: GalNAc(b1-3)Gal(a1-4)Gal(b1-4)GlcNAc
# Method in brief: as §1
# [4] = target: GalNAc(b1-3)Gal(a1-4)Gal(b1-4)GlcNAc(b1-3)Gal(b1-4)Glc
# Method in brief: as §1
# [5] = target: GalNAc(b1-3)Gal(a1-6)Gal(b1-4)Glc
# Method in brief: as §1
# GalNAc(b1-3)GalNAc = target: GalNAc(b1-3)GalNAc
# Method in brief: as §1
# GalNAc(b1-3)GlcNAc = target: GalNAc(b1-3)GlcNAc
# Method in brief: as §1
# GalNAc(b1-4)Gal(b1-4)Glc = target: GalNAc(b1-4)Gal(b1-4)Glc
# Method in brief: as §1
# GalNAc(b1-4)GlcNAc = target: GalNAc(b1-4)GlcNAc
# Method in brief: as §1
# [6] = target: GalNAc(b1-4)GlcNAc(b1-2)Man
# Method in brief: as §1
# [7] = target: GalNAc(b1-4)GlcNAc(b1-2)Man(a1-3)[GalNAc(b1-4)GlcNAc(b1-2)Man(a1-6)]Man(b1-4)GlcNAc(b1-4)GlcNAc
# Method in brief: as §1
# [8] = target: GalNAc(b1-4)GlcNAc(b1-3)GalNAc(b1-4)GlcNAc
# Method in brief: as §1
# GalNAc(b1-4)GlcNAc6S = target: GalNAc(b1-4)GlcNAc6S
# Method in brief: as §1
# GalNAc(b1-6)GalNAc = target: GalNAc(b1-6)GalNAc
# Method in brief: as §1
# GalNAc3S(b1-4)GlcNAc = target: GalNAc3S(b1-4)GlcNAc
# Method in brief: as §1
# GalNAc3S(b1-4)GlcNAc3S = target: GalNAc3S(b1-4)GlcNAc3S
# Method in brief: as §1
# [9] = target: GalNAc3S(b1-4)[Fuc(a1-3)]GlcNAc
# Method in brief: as §1
# GalNAc4S6S(b1-4)GlcNAc = target: GalNAc4S6S(b1-4)GlcNAc
# Method in brief: as §1
# GalNAc6S(b1-4)GlcNAc = target: GalNAc6S(b1-4)GlcNAc
# Method in brief: as §1
# Glc(a1-4)Glc = target: Glc(a1-4)Glc
# Method in brief: as §1
# [10] = target: Glc(a1-4)Glc(a1-4)Glc(a1-4)Glc
# Method in brief: as §1
# Glc(a1-6)Glc(a1-6)Glc = target: Glc(a1-6)Glc(a1-6)Glc
# Method in brief: as §1
# [11] = target: Glc(a1-6)Glc(a1-6)Glc(a1-6)Glc
# Method in brief: as §1
# Glc(b1-4)Glc = target: Glc(b1-4)Glc
# Method in brief: as §1
# Glc(b1-6)Glc = target: Glc(b1-6)Glc
# Method in brief: as §1
# GlcA(b1-3)Gal = target: GlcA(b1-3)Gal
# Method in brief: as §1
# GlcA(b1-3)GlcNAc = target: GlcA(b1-3)GlcNAc
# Method in brief: as §1
# GlcA(b1-6)Gal = target: GlcA(b1-6)Gal
# Method in brief: as §1
# [12] = target: GlcA3S(b1-3)Gal(b1-4)GlcNAc(b1-2)Man
# Method in brief: as §1
# [13] = target: GlcA3S(b1-3)Gal(b1-4)GlcNAc(b1-3)Gal(b1-4)Glc
# Method in brief: as §1
# [14] = target: GlcNAc(a1-3)Gal(b1-4)GlcNAc
# Method in brief: as §1
# [15] = target: GlcNAc(a1-4)Gal(b1-3)GlcNAc
# Method in brief: as §1
# [16] = target: GlcNAc(a1-4)Gal(b1-4)GalNAc
# Method in brief: as §1
# [17] = target: GlcNAc(a1-4)Gal(b1-4)GlcNAc
# Method in brief: as §1
# [18] = target: GlcNAc(a1-4)Gal(b1-4)GlcNAc(b1-3)Gal(b1-4)Glc
# Method in brief: as §1
# [19] = target: GlcNAc(a1-4)Gal(b1-4)GlcNAc(b1-3)Gal(b1-4)GlcNAc
# Method in brief: as §1
# [20] = target: GlcNAc(a1-4)Gal(b1-4)GlcNAc(b1-3)Gal(b1-4)GlcNAc(b1-3)Gal(b1-4)GlcNAc
# Method in brief: as §1
# [21] = target: GlcNAc(a1-4)Gal(b1-4)GlcNAc(b1-3)Gal(b1-4)[Fuc(a1-3)]GlcNAc(b1-3)Gal(b1-4)[Fuc(a1-3)]GlcNAc
# Method in brief: as §1
# [22] = target: GlcNAc(a1-6)Gal(b1-4)GlcNAc
# Method in brief: as §1
binder,measurement,setting,value
EULS2 M1 (Oryza sativa) (protein) MVYCRANPNYAMTARNGAVVLAPANPKDEYQHWIKDMRWSTSIKDEEGYPAFALVNKATGQAIKHSLGQSHPVRLVPYNPEVMDESVLWTESRDVGNGFRCIRMVNNIYLNFDAFHGDKYHGGVRDGTDIVLWKLCEGDNQRWKIQPYYILEQKLISEEDLNSAVDHHHHHH,glycan array binding signal (z-score),Gal6S(b1-4)Glc6S,0.372
same,glycan array binding signal (z-score),Gal6S(b1-4)GlcNAc,-0.203
same,glycan array binding signal (z-score),Gal6S(b1-4)GlcNAc6S,-0.128
same,glycan array binding signal (z-score),GalNAc(a1-3)Gal,0.063
same,glycan array binding signal (z-score),GalNAc(a1-3)GalNAc,-0.211
same,glycan array binding signal (z-score),[1],-0.43
same,glycan array binding signal (z-score),[2],0.139
same,glycan array binding signal (z-score),GalNAc(b1-3)Gal,-0.728
same,glycan array binding signal (z-score),[3],-0.544
same,glycan array binding signal (z-score),[4],0.014
same,glycan array binding signal (z-score),[5],2.84
same,glycan array binding signal (z-score),GalNAc(b1-3)GalNAc,-0.123
same,glycan array binding signal (z-score),GalNAc(b1-3)GlcNAc,-0.213
same,glycan array binding signal (z-score),GalNAc(b1-4)Gal(b1-4)Glc,0.195
same,glycan array binding signal (z-score),GalNAc(b1-4)GlcNAc,-0.209
same,glycan array binding signal (z-score),[6],-2.38
same,glycan array binding signal (z-score),[7],-0.583
same,glycan array binding signal (z-score),[8],-0.842
same,glycan array binding signal (z-score),GalNAc(b1-4)GlcNAc6S,0.476
same,glycan array binding signal (z-score),GalNAc(b1-6)GalNAc,-1.09
same,glycan array binding signal (z-score),GalNAc3S(b1-4)GlcNAc,-0.084
same,glycan array binding signal (z-score),GalNAc3S(b1-4)GlcNAc3S,2.16
same,glycan array binding signal (z-score),[9],-0.328
same,glycan array binding signal (z-score),GalNAc4S6S(b1-4)GlcNAc,-0.231
same,glycan array binding signal (z-score),GalNAc6S(b1-4)GlcNAc,-0.308
same,glycan array binding signal (z-score),Glc(a1-4)Glc,-0.084
same,glycan array binding signal (z-score),[10],-0.056
same,glycan array binding signal (z-score),Glc(a1-6)Glc(a1-6)Glc,-0.205
same,glycan array binding signal (z-score),[11],-0.149
same,glycan array binding signal (z-score),Glc(b1-4)Glc,2.81
same,glycan array binding signal (z-score),Glc(b1-6)Glc,0.366
same,glycan array binding signal (z-score),GlcA(b1-3)Gal,-0.545
same,glycan array binding signal (z-score),GlcA(b1-3)GlcNAc,0.171
same,glycan array binding signal (z-score),GlcA(b1-6)Gal,-0.084
same,glycan array binding signal (z-score),[12],-0.661
same,glycan array binding signal (z-score),[13],-0.764
same,glycan array binding signal (z-score),[14],-0.925
same,glycan array binding signal (z-score),[15],-0.287
same,glycan array binding signal (z-score),[16],-0.99
same,glycan array binding signal (z-score),[17],0.069
same,glycan array binding signal (z-score),[18],-0.177
same,glycan array binding signal (z-score),[19],-0.094
same,glycan array binding signal (z-score),[20],-0.525
same,glycan array binding signal (z-score),[21],0.441
same,glycan array binding signal (z-score),[22],0.36

# Part of the list above, as tab-separated lines.
binder	measurement	setting	value
EULS2 M1 (Oryza sativa) (protein) MVYCRANPNYAMTARNGAVVLAPANPKDEYQHWIKDMRWSTSIKDEEGYPAFALVNKATGQAIKHSLGQSHPVRLVPYNPEVMDESVLWTESRDVGNGFRCIRMVNNIYLNFDAFHGDKYHGGVRDGTDIVLWKLCEGDNQRWKIQPYYILEQKLISEEDLNSAVDHHHHHH	glycan array binding signal (z-score)	[1]	-0.43
same	glycan array binding signal (z-score)	GalNAc(b1-6)GalNAc	-1.09
same	glycan array binding signal (z-score)	GlcA(b1-3)GlcNAc	0.171
same	glycan array binding signal (z-score)	[21]	0.441
